The values that follow come from the supplement of paper PMC10849652.

Sequences of proteins named here, by UniProt entry; tags and fusion partners are left off. A change or cut given only in a name is not applied to a line headed by its entry.
UniProt P24593, whole entry, looked up: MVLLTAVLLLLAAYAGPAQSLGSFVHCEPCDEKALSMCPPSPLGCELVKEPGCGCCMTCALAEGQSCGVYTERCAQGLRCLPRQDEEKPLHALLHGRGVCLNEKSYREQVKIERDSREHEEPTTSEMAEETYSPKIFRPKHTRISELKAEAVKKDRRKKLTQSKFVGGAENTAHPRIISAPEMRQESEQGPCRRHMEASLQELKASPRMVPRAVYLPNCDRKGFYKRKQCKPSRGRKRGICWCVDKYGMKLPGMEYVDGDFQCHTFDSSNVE
UniProt Q8IY31, whole entry, looked up: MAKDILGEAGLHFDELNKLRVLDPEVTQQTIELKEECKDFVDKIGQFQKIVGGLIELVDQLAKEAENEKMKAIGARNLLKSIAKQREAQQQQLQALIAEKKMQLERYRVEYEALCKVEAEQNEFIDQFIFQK
UniProt Q12906, whole entry, looked up: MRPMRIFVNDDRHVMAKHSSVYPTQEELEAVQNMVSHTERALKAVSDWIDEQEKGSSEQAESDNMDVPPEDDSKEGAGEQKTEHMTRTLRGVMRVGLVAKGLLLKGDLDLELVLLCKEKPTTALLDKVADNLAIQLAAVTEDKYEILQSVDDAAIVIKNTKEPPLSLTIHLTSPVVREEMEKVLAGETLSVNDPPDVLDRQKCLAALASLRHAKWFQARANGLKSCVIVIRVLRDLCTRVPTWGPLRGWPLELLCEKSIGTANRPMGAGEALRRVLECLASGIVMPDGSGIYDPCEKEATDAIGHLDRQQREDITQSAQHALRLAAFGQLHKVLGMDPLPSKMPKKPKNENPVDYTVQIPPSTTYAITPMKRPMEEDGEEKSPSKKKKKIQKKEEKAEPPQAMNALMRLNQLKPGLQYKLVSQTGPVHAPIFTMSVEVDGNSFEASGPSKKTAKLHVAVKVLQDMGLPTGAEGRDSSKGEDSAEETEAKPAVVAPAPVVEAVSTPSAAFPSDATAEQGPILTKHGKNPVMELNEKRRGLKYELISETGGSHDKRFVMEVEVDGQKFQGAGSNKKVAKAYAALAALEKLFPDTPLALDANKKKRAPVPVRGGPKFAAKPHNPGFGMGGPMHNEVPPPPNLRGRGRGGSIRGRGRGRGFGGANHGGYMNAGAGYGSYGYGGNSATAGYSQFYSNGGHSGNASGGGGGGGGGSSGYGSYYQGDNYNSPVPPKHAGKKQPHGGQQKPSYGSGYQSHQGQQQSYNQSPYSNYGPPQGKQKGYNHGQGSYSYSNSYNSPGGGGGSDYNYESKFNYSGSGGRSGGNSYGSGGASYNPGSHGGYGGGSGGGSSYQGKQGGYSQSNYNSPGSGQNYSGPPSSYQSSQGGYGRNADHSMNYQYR
UniProt P51617, whole entry, looked up: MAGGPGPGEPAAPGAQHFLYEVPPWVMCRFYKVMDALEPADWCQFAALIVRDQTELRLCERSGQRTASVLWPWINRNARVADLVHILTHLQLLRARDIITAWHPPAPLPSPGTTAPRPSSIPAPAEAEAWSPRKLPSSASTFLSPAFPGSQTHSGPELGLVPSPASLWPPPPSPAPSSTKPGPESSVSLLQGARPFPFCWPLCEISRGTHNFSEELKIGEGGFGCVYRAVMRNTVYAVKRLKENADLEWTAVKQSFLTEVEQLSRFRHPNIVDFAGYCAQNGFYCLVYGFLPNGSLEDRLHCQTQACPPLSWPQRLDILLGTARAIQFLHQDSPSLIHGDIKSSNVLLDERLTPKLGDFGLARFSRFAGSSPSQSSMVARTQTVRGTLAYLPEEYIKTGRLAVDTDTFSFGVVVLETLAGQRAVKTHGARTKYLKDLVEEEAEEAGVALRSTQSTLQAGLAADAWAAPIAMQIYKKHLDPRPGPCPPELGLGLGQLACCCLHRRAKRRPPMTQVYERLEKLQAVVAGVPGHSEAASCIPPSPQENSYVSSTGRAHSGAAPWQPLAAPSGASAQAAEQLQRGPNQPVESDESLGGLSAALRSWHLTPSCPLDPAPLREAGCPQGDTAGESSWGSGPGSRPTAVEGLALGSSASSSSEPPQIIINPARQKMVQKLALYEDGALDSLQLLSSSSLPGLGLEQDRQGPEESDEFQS
UniProt P58166: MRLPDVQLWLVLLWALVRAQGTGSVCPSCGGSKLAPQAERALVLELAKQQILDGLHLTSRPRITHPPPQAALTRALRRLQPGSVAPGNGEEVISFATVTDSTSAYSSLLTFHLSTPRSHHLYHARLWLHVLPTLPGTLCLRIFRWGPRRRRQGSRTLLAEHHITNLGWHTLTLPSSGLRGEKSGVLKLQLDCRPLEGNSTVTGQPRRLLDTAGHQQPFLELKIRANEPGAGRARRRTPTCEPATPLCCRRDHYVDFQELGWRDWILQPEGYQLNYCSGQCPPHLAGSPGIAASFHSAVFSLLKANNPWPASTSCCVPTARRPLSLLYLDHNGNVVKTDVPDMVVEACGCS
UniProt O14920: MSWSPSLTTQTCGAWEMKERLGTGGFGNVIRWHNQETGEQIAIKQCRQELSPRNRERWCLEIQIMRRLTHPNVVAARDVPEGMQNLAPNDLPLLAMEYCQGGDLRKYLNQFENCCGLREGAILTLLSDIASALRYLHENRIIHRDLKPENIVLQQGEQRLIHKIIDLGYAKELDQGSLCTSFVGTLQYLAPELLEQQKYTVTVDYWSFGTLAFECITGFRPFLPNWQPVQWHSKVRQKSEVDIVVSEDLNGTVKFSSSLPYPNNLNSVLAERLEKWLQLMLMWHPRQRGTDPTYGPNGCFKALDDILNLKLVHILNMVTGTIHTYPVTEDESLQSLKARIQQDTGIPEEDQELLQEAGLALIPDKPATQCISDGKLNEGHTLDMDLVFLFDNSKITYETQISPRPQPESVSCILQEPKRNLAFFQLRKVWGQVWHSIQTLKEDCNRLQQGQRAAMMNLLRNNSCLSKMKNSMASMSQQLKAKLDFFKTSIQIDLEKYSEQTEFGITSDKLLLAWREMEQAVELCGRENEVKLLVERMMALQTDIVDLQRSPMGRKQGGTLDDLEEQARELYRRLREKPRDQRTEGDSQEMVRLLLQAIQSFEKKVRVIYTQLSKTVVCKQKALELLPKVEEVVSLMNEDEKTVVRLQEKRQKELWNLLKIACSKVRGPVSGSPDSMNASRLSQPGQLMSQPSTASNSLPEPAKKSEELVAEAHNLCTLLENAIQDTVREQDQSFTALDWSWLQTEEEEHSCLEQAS
UniProt Q8IU81: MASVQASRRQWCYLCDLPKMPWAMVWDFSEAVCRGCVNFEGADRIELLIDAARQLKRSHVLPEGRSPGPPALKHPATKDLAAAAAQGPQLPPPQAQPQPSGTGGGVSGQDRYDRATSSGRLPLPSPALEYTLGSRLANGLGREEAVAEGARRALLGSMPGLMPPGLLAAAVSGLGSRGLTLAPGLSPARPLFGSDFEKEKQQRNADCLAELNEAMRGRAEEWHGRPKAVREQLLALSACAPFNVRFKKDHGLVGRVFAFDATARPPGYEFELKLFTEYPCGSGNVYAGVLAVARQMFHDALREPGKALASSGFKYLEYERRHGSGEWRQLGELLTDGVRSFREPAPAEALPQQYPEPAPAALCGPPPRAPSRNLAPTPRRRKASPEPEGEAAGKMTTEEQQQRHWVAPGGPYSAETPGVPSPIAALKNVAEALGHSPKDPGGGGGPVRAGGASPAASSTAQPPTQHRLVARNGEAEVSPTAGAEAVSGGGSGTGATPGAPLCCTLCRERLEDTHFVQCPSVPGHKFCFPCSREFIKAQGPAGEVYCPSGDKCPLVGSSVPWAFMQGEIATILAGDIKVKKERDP
UniProt Q8N201, whole entry, looked up: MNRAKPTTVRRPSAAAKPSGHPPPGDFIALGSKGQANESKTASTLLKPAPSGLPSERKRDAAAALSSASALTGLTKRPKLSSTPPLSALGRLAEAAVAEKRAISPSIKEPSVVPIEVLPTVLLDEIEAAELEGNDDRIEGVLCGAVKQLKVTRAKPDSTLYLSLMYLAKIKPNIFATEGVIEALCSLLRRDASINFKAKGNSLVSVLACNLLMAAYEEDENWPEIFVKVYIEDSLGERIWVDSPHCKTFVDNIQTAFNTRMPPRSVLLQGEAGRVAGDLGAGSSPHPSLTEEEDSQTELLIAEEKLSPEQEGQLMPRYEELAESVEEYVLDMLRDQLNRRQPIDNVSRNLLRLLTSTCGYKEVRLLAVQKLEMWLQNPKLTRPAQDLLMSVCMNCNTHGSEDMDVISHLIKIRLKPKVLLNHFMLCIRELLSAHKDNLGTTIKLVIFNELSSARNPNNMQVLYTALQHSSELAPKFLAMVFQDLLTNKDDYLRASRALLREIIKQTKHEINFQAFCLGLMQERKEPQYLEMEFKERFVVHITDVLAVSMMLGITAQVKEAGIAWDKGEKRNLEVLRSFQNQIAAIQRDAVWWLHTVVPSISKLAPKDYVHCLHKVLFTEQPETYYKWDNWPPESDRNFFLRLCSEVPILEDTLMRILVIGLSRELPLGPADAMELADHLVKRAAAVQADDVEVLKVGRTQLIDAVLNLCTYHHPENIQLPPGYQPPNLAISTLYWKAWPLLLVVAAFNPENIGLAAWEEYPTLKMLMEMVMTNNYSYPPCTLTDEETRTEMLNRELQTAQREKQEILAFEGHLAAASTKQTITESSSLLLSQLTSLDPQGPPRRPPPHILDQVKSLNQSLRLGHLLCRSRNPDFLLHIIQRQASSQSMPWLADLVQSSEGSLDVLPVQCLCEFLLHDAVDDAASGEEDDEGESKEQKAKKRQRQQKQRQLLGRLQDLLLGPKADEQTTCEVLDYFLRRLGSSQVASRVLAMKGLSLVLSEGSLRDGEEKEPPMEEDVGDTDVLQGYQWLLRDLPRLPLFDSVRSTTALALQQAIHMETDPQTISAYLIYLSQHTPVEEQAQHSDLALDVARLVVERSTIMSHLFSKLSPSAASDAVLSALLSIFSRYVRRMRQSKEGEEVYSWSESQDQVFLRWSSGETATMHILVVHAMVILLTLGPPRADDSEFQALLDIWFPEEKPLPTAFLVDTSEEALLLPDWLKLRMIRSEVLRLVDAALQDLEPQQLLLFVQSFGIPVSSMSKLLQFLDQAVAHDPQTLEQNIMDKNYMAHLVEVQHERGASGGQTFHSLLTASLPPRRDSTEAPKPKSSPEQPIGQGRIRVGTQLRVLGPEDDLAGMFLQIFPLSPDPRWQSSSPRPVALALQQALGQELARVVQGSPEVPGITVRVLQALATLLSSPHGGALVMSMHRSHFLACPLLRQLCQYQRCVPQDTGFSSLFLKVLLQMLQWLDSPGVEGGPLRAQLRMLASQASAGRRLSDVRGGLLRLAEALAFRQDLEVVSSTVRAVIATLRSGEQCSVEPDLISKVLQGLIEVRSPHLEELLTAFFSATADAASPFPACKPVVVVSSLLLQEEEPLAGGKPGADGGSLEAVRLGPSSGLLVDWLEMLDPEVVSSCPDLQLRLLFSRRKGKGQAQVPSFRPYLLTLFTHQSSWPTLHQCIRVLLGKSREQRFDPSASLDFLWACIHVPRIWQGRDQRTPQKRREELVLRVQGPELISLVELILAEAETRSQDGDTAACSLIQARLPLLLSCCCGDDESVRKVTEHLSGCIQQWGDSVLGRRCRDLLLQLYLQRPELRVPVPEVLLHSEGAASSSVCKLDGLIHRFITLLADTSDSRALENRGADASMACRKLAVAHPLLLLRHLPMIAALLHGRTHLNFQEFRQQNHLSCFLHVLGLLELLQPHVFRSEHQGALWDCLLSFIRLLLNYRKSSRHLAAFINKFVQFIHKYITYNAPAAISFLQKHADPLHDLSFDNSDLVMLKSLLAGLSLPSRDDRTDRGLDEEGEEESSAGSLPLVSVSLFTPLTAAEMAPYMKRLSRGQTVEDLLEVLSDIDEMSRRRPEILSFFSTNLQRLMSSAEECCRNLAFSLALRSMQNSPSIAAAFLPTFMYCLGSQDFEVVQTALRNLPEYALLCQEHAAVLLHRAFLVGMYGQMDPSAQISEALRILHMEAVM
UniProt Q13422: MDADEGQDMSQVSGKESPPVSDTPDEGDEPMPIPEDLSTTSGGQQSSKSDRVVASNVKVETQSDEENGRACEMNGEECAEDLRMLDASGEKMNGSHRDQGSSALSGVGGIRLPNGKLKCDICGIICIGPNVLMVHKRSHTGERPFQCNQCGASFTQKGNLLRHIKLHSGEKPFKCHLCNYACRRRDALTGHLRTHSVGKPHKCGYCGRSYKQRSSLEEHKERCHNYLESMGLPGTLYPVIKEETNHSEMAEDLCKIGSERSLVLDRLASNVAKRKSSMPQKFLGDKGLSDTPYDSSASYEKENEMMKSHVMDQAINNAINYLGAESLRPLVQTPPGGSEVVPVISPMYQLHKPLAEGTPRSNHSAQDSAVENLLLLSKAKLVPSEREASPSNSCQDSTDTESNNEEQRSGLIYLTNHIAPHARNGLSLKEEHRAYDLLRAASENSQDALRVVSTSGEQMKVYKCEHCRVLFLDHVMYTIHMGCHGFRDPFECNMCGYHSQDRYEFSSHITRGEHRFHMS
UniProt P01344, whole entry, looked up: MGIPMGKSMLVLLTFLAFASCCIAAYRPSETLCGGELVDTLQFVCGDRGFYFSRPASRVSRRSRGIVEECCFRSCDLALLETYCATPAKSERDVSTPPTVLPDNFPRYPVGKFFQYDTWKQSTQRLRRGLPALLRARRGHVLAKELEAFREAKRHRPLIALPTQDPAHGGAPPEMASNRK

The other results are listed elsewhere or left out.

Compound in the first test: NC(=O)Nc1cc(-c2cccc(F)c2)sc1C(=O)N[C@H]1CCCNC1
As to the kind of experiment: log2 fold change, soluble protein after heating vs DMSO (PISA); higher = thermal stabilisation; K562 cells, 10 uM, 30 min; active = over 0.2 and 3.5 SD of the protein, either way, in both replicates (recomputed). In outline:
(§1)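 Soluble protein was quantified by TMTpro 16plex LC-MS/MS after channel sums were equalised. It was obtained as the supernatant after 21,000xg for 90 min from pooled aliquots of K562 cells (2×10^6 cells/mL, 10 μM compound, 30 min) heated for 3 min across 48°C-58°C and extracted in PBS with 0.5% NP-40 at 4°C. Thermal stability values are relative to control samples and come from duplicates. They are given as log2 fold changes.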
Regarding IGLL5 (UniProt B9A064), the log2 fold change is inactive: 0.887.
The same measure, in the same setting: the value for IGFBP5 (UniProt P24593) was inactive: 0.19.
Still for that read-out and setting: the value for IFT20 isoform 2 (UniProt Q8IY31) was inactive: -0.022.
Still for that read-out and setting: the value for ILF3 (UniProt Q12906) was inactive: 0.013; that for IL18R1 (UniProt Q13478) was inactive: -0.401.
IGHG1 (UniProt P01857): the log2 fold change is inactive: 1.02.
Same read-out and setting: next, IQSEC1 (UniProt Q6DN90): inactive: -0.049.
The same measure, in the same setting: the value for IRAK1 (UniProt P51617) was inactive: 0.229; that for INHBE (UniProt P58166) was inactive: 0.142; that for IKBKB (UniProt O14920) was inactive: -0.049.
For the target IRF2BP1 (UniProt Q8IU81), the log2 fold change was inactive: -0.001.
On the same count and under the same terms, the value for INTS1 (UniProt Q8N201) was inactive: 0.065.
The same measure, in the same setting: next, IKZF1 isoform 2 (UniProt Q13422): inactive: 0.06.

Compound in a further test: NC(=O)c1cnc(N[C@@H]2CCCC[C@@H]2N)nc1Nc1cccc(-n2nccn2)c1
Described as above. A digest of the protocol: as §1
For ITIH1 (UniProt P19827), the log2 fold change is inactive: 0.073.
Turning to IL23R (UniProt Q5VWK5), the log2 fold change was inactive: -0.31.
Still for that read-out and setting: next, IDH3A isoform 2 (UniProt P50213): inactive: -0.06; IMPDH2 (UniProt H0Y4R1): inactive: 0.037.
IFT27 (UniProt Q9BW83): the log2 fold change was inactive: -0.037.
Same read-out and setting: next, IPP (UniProt Q9Y573): inactive: 0.047.
Still for that read-out and setting: the value for INO80E (UniProt Q8NBZ0) was inactive: 0.058; that for IL1RAP isoform 5 (UniProt Q9NPH3) was inactive: -0.308.
As for ISL2 (UniProt Q96A47), the log2 fold change was inactive: 0.06.
Still for that read-out and setting: the value for ING4 (UniProt Q9UNL4) was inactive: -0.114; that for IGSF1 isoform 4 (UniProt Q8N6C5) was inactive: 0.04.
Still for that read-out and setting: next, IGSF8 (UniProt Q969P0): inactive: 0.037; IGFBP6 (UniProt P24592): inactive: -0.079.

Compound in the next test: NC1(c2ccc(-c3nc4ccn5c(=O)[nH]nc5c4cc3-c3ccccc3)cc2)CCC1
The test is described as above. A digest of the protocol: as §1
On to ITIH1 (UniProt P19827), for which the log2 fold change was inactive: -0.021.
As for IGLL5 (UniProt B9A064), the log2 fold change is inactive: 0.156.
Regarding IGFBP5 (UniProt P24593), the log2 fold change was inactive: -0.33.
The same measure, in the same setting: the value for IFT20 isoform 2 (UniProt Q8IY31) was inactive: -0.072.
The same measure, in the same setting: the value for IDUA (UniProt P35475) was inactive: -0.031; that for ILF3 (UniProt Q12906) was inactive: 0.331.
Still for that read-out and setting: the value for IMPDH2 (UniProt H0Y4R1) was inactive: -0.03; that for IL18R1 (UniProt Q13478) was inactive: -0.141; that for IQSEC2 (UniProt Q5JU85) was inactive: 0.103.
As to IGHG1 (UniProt P01857), the log2 fold change was inactive: 0.216.
The same measure, in the same setting: the value for INO80E (UniProt Q8NBZ0) was inactive: -0.032; that for IRAK1 (UniProt P51617) was inactive: 0.003; that for ING5 (UniProt Q8WYH8) was inactive: -0.042.
On the same count and under the same terms, the value for IGSF1 isoform 4 (UniProt Q8N6C5) was inactive: -0.07; that for IGSF8 (UniProt Q969P0) was inactive: -0.105; that for INHBE (UniProt P58166) was inactive: 0.073.
On the same count and under the same terms, next, IKBKB (UniProt O14920): inactive: -0.16.
IRF2BP1 (UniProt Q8IU81): the log2 fold change was inactive: -0.109.
The same measure, in the same setting: next, INTS1 (UniProt Q8N201): inactive: 0.044.
On to IKZF1 isoform 2 (UniProt Q13422), for which the log2 fold change is inactive: -0.109.
IGLC3 (UniProt P0DOY3): the log2 fold change is inactive: 0.001.

Compound in a further test: NCC(=O)Nc1ccc(-n2nc(C(F)(F)F)cc2-c2ccc3c(ccc4ccccc43)c2)cc1
Described as above. In outline: as §1
With ITPR3 (UniProt Q14573), the log2 fold change was inactive: -0.142.
Still for that read-out and setting: the value for IGFBP5 (UniProt P24593) was inactive: -0.172.
Consider IL23R (UniProt Q5VWK5), for which the log2 fold change was inactive: -0.372.
On the same count and under the same terms, the value for INTS12 (UniProt Q96CB8) was inactive: -0.318; that for IMPDH2 (UniProt H0Y4R1) was inactive: 0.001; that for IL2RG (UniProt P31785) was inactive: -0.041.
On the same count and under the same terms, next, IGHG1 (UniProt P01857): inactive: 0.317; IL1RAP isoform 5 (UniProt Q9NPH3): inactive: -0.388; IGSF8 (UniProt Q969P0): inactive: 0.09.
Still for that read-out and setting: next, INHBE (UniProt P58166): inactive: -0.047; IKBKB (UniProt O14920): inactive: -0.185.
As to ITPRID2 (UniProt P28290), the log2 fold change was inactive: -0.059.
Still for that read-out and setting: the value for IGFBP6 (UniProt P24592) was inactive: -0.13.
Same read-out and setting: the value for IGF2 isoform 3 (UniProt P01344) was inactive: -0.004; that for IKZF1 isoform 2 (UniProt Q13422) was inactive: 0.036.

Compound in a further test: Nc1ccccc1NC(=O)c1ccc(CNC(=O)OCc2cccnc2)cc1 [entinostat]
The description is as above. In outline: as §1
On to IGLL5 (UniProt B9A064), for which the log2 fold change was inactive: -0.055.
On the same count and under the same terms, the value for IGFBP5 (UniProt P24593) was inactive: 0.078; that for IFT20 isoform 2 (UniProt Q8IY31) was inactive: 0.019.
On the same count and under the same terms, next, ILF3 (UniProt Q12906): inactive: 0.058; IL18R1 (UniProt Q13478): inactive: -0.257; IGHG1 (UniProt P01857): inactive: 0.18.
The same measure, in the same setting: next, IQSEC1 (UniProt Q6DN90): inactive: -0.076; IRAK1 (UniProt P51617): inactive: -0.216.
As to INHBE (UniProt P58166), the log2 fold change was inactive: 0.167.
On the same count and under the same terms, next, IKBKB (UniProt O14920): inactive: 0.092.
Turning to IRF2BP1 (UniProt Q8IU81), the log2 fold change was inactive: 0.024.
Still for that read-out and setting: the value for INTS1 (UniProt Q8N201) was inactive: -0.364; that for IKZF1 isoform 2 (UniProt Q13422) was inactive: -0.006.
